Experiment [1] has as its target CB1 T210A/fusion partner, over-expressed on TRex CHO A56 cells (human) (UniProt P21554). Description: flow cytometry. (A flow cytometer gives signals particle by particle.)
Experiment [2] has the same target. The experiment is described as follows: flow cytometry, mean fluorescence intensity against antibody concentration, TRex-CHO CB1 (T210A/3A4C) cells.
The target is the same in experiment [3]. Description: flow cytometry (FIG. 2B).
For experiment [4] the target is unchanged. The experiment is described as follows: flow cytometry, mean fluorescence intensity against IgG concentration, cells with CB1 T210A/3A4C (A56).
Experiment [5] has as its target native full length human CB1 receptor (TRex-CHO A156 cells) (human) (UniProt P21554). Description: flow cytometry on Trex-CHO Native human CB1 (A156) cells, compared with Trex-CHO parental cells; concentration not printed on the sheet.
Experiment [6] addresses CB1 T210A/fusion partner, over-expressed on TRex CHO A56 cells (human) (UniProt P21554). The experiment is described as follows: flow cytometry on Trex-CHO CB1 T210A/fusion partner (A56) cells, compared with Trex-CHO parental cells; concentration not printed on the sheet.
The target is the same in experiment [7]. The experiment is described as follows: flow cytometry, IgG at 300 nM and 30 nM on Trex-CHO CB1 T210A/fusion partner cells, compared with Trex-CHO parental cells.
For experiment [8], the target named is native full length human CB1 receptor (TRex-CHO A156 cells) (human) (UniProt P21554). Description: flow cytometry, IgG at 300 nM and 30 nM on Trex-CHO Native human CB1 cells, compared with Trex-CHO parental cells.

Residue numbers refer to the chain shown, from its start. Results are given in words; binding and its absence hold for the method and conditions named. Some entries that bind do so weakly or less than the wild type.

For 12 molecules, binding results are on record in patent US20250236669A1.

B1: P1C4-h0-IgG1 (antibody, V domains shown)
VH: QVQLVQSGAEVKKPGSSVKVSCKASGGTFSYYWMNWVRQAPGQGLEWMGQIYPGDGETKYAQKFQGRVTITADKSTSTAYMELSSLRSEDTAVYYCARSHGNYLPYWGQGTLVTVSS
VL: EIVLTQSPATLSLSPGERATLSCRASQSVSSSYLHWYQQKPGQAPRLLIYSTSNLASGIPARFSGSGSGTDFTLTISRLEPEDFAVYYCHQYHRSPPTFGQGTKVEIKR
Take B1: the binding result in experiment [1] and in experiment [2] was “binds” in each case.

B2: 36E12B6C2 IgG (antibody, V domains shown)
VH: QVQLQQSGAELVRPGSSVKISCKASGYEFSYYWMNWVKQRPGQGLQWIGQIYPGDGDTNYNGKFKGKATLTADKSSSTAYMHLTSLTSEDSAVYFCARSGGNPFAFWGQGTLVTVSA
VL: DIQMTQTSSSLSASLGDRVTFSCRASQDISNYLNWYQQKPDGTVKLLIYYTSRLHSGVTSRFRGSGSGTDYSLTISNLEQEDVATYFCQQGHTLPWSFGGGTKLEIKR
As for B2, the binding entry in experiment [1], in experiment [3] and in experiment [4] was “binds” throughout.

B3: PA2LR3-P1H4 (chimeric) (antibody, V domains shown)
VH: EVQLQQSGAELVRPGSSVKISCKASGYVFGNYWMNWVKQRPGQGLEWIGQIYPGDGDTNYNGKFKGKATLTADKSSSTAYMQLSSLTSEDSAVYFCARSHGNYFPYWGQGTLVTVSA
VL: QIVLTQSPAIMSASLGERVTMTCTASSSVSSSYLHWYQQKPGSSPKLWIYSTSNLASGVPARFSGSGSGTSYSLTISSMEAEDAATYYCQQWSSYPLTFGAGTKLELKR
As to B3, the binding entry in experiment [5], in experiment [6], in experiment [7] and in experiment [8] was “binds” each time.

B4: PA2LR3-P2D3 (chimeric) (antibody, human IgG1, kappa, V domains shown)
VH: B3 VH with V28A, G30S, N31Y, N102S, P105A
VL: DIELAQSPASLAVSLGQRATISCRASESVDSYGNSFMHWYQQKPGQPPKLLIYLASNLESGVPARFSGSGSRADFTLTIDPVEADDAATYYCLQYASSPPTFGAGTKLEIKR
Take B4: in experiment [7], the binding result is “binds”.

B5: PA2LR3-P4G10 (chimeric) (antibody, V domains shown)
VH: B3 VH with S7F, V28A, G30S, N31Y, P105A
VL: B3 VL with Q1D, Y95N
Regarding B5, the binding entry in experiment [7] and in experiment [8] was “binds” each time.

B6: PA2LR3-P4B1 (chimeric) (antibody, human IgG1, kappa, V domains shown)
VH: B3 VH with Y27F, V28A, G30S, Y60F, K67R, T69I, K74I, S77N
VL: B3 VL with Q90H, W92Y, S93H, S94R, Y95S
On to B6, for which the binding entry in experiment [7] is “binds”.

B7: PA2LR3-P1G6 (chimeric) (antibody, V domains shown)
VH: B3 VH with V28A, G30S, N31Y, A72V, P105A
VL: B3 VL with Q1D, T5S, S78R
Consider B7, for which the binding result in experiment [5] and in experiment [6] was “binds” throughout.

B8: PA2LR3-P4B5 (chimeric) (antibody, human IgG1, kappa, V domains shown)
VH: B3 VH with V28A, G30S, N31Y, N61S, K63R, M81I
VL: B3 VL with Q1D, T5N, Q90H, W92Y, S93H, S94R, Y95S, L107I
As to B8, the binding result in experiment [7] is “binds”.

B9: PA2LR3-P2E5 (chimeric) (antibody, V domains shown)
VH: B3 VH with V28A, G30R, N31D, D57A, N61I, Q109H
VL: B3 VL
B9: the binding entry in experiment [7] and in experiment [8] was “binds” each time.

B10: PA2LR3-P4C6 (chimeric) (antibody, V domains shown)
VH: B3 VH with V28A, G30S, N31Y
VL: B3 VL with Q1D, L4I, M11V, L107I
With B10, the binding entry in experiment [7] and in experiment [8] was “binds” each time.

B11: PA2LR3-P3B10 (chimeric) (antibody, V domains shown)
VH: B3 VH with V28A, G30S, N31Y
VL: B3 VL with Q1D, L4I, M11V, L107I
B11: the binding entry in experiment [7] and in experiment [8] was “binds” throughout.

B12: PA2LR3-P2B8 (chimeric) (antibody, V domains shown)
VH: B3 VH with V28A, G30S, N31Y, P105A
VL: B3 VL with Q1D, L4M, V29I, Q90H, W92Y, S93H, S94R, Y95S, T98A
As to B12, the binding entry in experiment [5] and in experiment [6] was “binds” in each case.
